## Library screening results

Chains of the proteins cited; added tags and fusions are not shown.
UniProt E9BF75, entry or part of it: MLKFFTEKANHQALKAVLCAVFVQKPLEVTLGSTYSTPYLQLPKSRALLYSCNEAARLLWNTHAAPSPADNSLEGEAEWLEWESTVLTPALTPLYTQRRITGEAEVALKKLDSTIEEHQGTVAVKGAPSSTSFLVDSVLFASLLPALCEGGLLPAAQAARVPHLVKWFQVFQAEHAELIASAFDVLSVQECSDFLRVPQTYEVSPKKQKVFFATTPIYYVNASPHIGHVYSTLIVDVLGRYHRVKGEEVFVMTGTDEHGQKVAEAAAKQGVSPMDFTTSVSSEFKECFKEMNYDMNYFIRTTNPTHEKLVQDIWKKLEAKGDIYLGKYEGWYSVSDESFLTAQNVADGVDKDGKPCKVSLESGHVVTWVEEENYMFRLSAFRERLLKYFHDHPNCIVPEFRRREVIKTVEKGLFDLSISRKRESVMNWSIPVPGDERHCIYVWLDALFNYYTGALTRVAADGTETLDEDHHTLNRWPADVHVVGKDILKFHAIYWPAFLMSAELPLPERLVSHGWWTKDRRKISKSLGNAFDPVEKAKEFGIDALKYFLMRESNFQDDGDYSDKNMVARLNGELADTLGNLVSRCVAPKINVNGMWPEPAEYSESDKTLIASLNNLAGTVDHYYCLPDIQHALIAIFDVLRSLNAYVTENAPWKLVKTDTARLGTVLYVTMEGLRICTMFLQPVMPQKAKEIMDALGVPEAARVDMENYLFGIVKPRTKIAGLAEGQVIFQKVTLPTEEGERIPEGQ

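Methionyl-tRNA synthetase (putative), Leishmania donovani (UniProt E9BF75). Primary screen of methionyl-tRNA synthetase; the read-out is not stated. The test concentration is not given. The values are filed as inhibition. Of about 68,000 compounds tested this way, about 24 (0.035%) reached 50% or more in at least one test.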

All values are in %. The controls that fix the scale are not given in the record; negative values are as filed. This is an unselected part of the compounds tested.

- Cc1cccc(CNC(Cn2cncn2)c2ccccc2)c1C (stereo not given) | 10.92%
- CCCC(O)CN1CCC(=O)N(CCOC)Cc2cc3c(cc21)OCO3 (stereo not given) | 1.918%
- CCc1nc(C)c(-c2nccn2CC2CC(=O)N(CC)C2)[nH]1 (stereo not given) | 0.9804%
- Cc1nsc(C(=O)N2CCc3ccccc3C2)n1 | 9.804%
- Cc1cc(=O)n2c(n1)SCC2CC(=O)NCc1cc(-c2ccco2)on1 (stereo not given) | 2.484%
- Cc1cc(C(=O)N(C)S(=O)(=O)C(C)C)ccc1F | -0.7371%
- O=C(Nc1ccnc(OC2CCOC2)c1)C1CCC1 (stereo not given) | 12.39%
- O=C(CCc1cccnc1)N1CCC(c2cnccn2)CC1 | 14.79%
- COc1ccc(CC(=O)N2CC(=O)NCC(C)(C)C2)cc1 | 5.676%
- CC(C)N1CCc2c(C(=O)N3CCOCC3)nn(C)c2C1 | 18.09%
- CSc1ccc(CNC(c2ccccc2)c2nccn2C)cc1 (stereo not given) | 17.46%
- NC(=O)N1C[C@@H]2CN(C(=O)c3ccco3)C[C@@H]2C1 | 11.11%
- CCN1CCN(C(=O)c2cnc(Cc3c(Cl)cccc3Cl)nc2O)CC1 | 10.13%
- CCCc1cncnc1N1CCC(NCc2cc3ccccc3[nH]2)CC1 | 19.22%
- CCc1ccc(CN2CCC3(CC2)CN(c2cnn(C)c2)C(=O)CO3)o1 | 17%
- CCC1=N[C@@]2(CC[C@@H]3CN(S(=O)(=O)CC)C[C@@H]32)C(=O)N1CCOC | 16.31%
- CCc1nc(NCC(=O)N2CCOCC2)c2c(n1)c(C)nn2CC | 16.18%
- CN(C)c1cc(C(=O)N2CCCN(Cc3cscn3)CC2)ccn1 | 11.5%
- Cc1ccc(C(=O)Nc2cc(C(N)=O)ccc2N2CCCCC2)cc1F | 22.36%
- COc1ccc(CN(CC2CCCO2)c2nc3c(s2)c(C)nn3C)cc1 (stereo not given) | 8.163%
- COCC(=O)N1CCN(c2cc(C)nc(C3CCCN3C(C)=O)c2)CC1 (stereo not given) | 12%
- Cc1cnc(C(=O)N2C[C@H]3CC[C@@H]2CN(c2cnccn2)C3)cn1 | 11.19%
- Cc1ccc(C(=O)N2CCSCC2)cc1N1CCNC1=O | 2.793%
- Cc1ccsc1[C@@H]1CCN(C(=O)Cc2ccc(O)cc2)C[C@H]1O | 9.14%
- CSc1ccsc1C(=O)NS(=O)(=O)c1cccc(C#N)c1 | 8.934%
- Cn1cc(NS(=O)(=O)c2ccc(OC(F)(F)F)cc2)ccc1=O | 1.408%
- CCC1=N[C@@]2(CC[C@@H]3CN(S(=O)(=O)CC(C)C)C[C@@H]32)C(=O)N1C | 21.57%
- CO[C@@H]1CCN(C(=O)c2ccsc2)[C@@H]2CN(CC3CC3)C[C@@H]21 | 10.64%
- Cc1ncc2c(n1)CCCC2NC(=O)c1ccccc1Cn1cncn1 (stereo not given) | 6.634%
- NCCCn1nc(C(F)(F)F)c2c1CCC2 | 11.08%
- CSc1nccc(N2CCC3(CCCN(CC4CC4)C3)C2)n1 (stereo not given) | 15.97%
- CC1(c2ccccc2)CCC(=O)N(CC2(N3CCOCC3)CCCC2)C1 (stereo not given) | 6.643%
- O=C(O)c1ccccc1-c1cnc(CNC(=O)C2CCOCC2)nc1 | 4.037%
- CCOCCCC(=O)NCc1ccc(N2CCCCC2)cc1 | 20.41%
- CO[C@@H]1CCC[C@@H](NC(=O)CCCn2cncn2)[C@H]1O | 6.522%
- Cc1cc(Cn2cc(C(C)Cc3ccc4c(c3)OCO4)nn2)n[nH]1 (stereo not given) | 15.14%
- COc1cccc(OC)c1-c1ccnc2cc(CC(=O)NC3CC3)nn12 | 10.92%
- CN(C)C(=O)c1cccnc1SCc1ccccc1Cl | 4.167%
- CCn1cc(CN(C)C(=O)C(c2ccccc2C)N(C)C)cn1 (stereo not given) | 10.99%
- CN1CCCc2ccc(S(=O)(=O)NC(=O)C3CC=CC3)cc21 | 5.108%
- O=C(NCCn1cc(Cl)cn1)C1CCN(C(=O)C2CC2)CC1 | 6.267%
- CCN(CC1CCCN(CCc2cccc(OC)c2)C1)C(=O)CSC (stereo not given) | 6.859%
- Cc1nc(C)c(C(=O)NCCNc2cc(N3CCCC3)ncn2)s1 | -0.2674%
- CC(=O)NCCNC(=O)c1sc(-c2ccc(Cl)s2)nc1C | 7.302%
- CN(C)C(=O)CO[C@H]1CN(Cc2ccoc2)[C@@H]2COC[C@H]12 | 9.836%
- CCc1ccc(C(=O)Nc2ccc3c(c2)N(C)CCN(C)C3)o1 | 14.61%
- CN(CC(=O)N1CCC(C(O)c2ccccc2)CC1)c1cnccn1 (stereo not given) | 12.38%
- O=C(c1coc(COc2cccc3cnccc23)n1)N1CCCCCC1 | 1.718%
- CCN(Cc1ccncc1)c1cc(C2CCNCC2)nc(C)n1 | 12.15%
- Cc1nn(C)c(C)c1C1CCCN1CCOc1cccc(C#N)c1 (stereo not given) | 3.846%
- O=C1CCCN1Cc1nnc2n1CCCN(Cc1ccco1)C2 | 11.48%
- COc1ccc(C2CC(=O)NCc3nc4ccccn4c32)cn1 (stereo not given) | 12.64%
- COc1cccc2cc(CNCc3ccnc(N(C)C)c3)oc12 | 17.78%
- COc1ccc(CCN)cc1-c1ccc(C(N)=O)cc1 | 9.946%
- CC(C)OCCCNC(=O)CN(c1ccc(F)c(F)c1)S(C)(=O)=O | 6.857%
- CCS(=O)(=O)CCN1CCC(N(C)Cc2noc(C(C)C)n2)C1 (stereo not given) | 17.07%

Some entries from above, unchanged:

- Cc1ccc(C(=O)Nc2cc(C(N)=O)ccc2N2CCCCC2)cc1F : 22.36%
- Cn1cc(NS(=O)(=O)c2ccc(OC(F)(F)F)cc2)ccc1=O : 1.408%
- CCN(Cc1ccncc1)c1cc(C2CCNCC2)nc(C)n1 : 12.15%
- CSc1nccc(N2CCC3(CCCN(CC4CC4)C3)C2)n1 (stereo not given) : 15.97%

From ChEMBL document CHEMBL3988442, “University of Dundee, Small-Polar-MMV Screening Library” (2021).